From publication PMC12040169 (PLOS Biology, 2025) come the findings set out here.

The other results are listed elsewhere or left out.

The test system of the assay is T1, CTL2-GFP (C. trachomatis L2/434/Bu, GFP-expressing).
T1 construct: L2/434/Bu, GFP-expressing
Set-up: species or system HeLa; Intracellular C. trachomatis growth in HeLa cells, bulk GFP fluorescence relative to DMSO. Conditions: bulk GFP, single well; 28.5 h, 10 µM; inhibitor.
Turning to `COc1cc2oc(=O)c(CC(=O)N[C@@H](CC(C)C)C(=O)O)c(C)c2cc1Cl` [CBK286772], the “% of control remaining” value stood at 89.8752%.
The same measure for `CC1(C)CC(=O)C=C(NCC2CCNCC2)C1` [CBK027580]: 100%; for `COc1ccc(C2(O)CCN(CC(O)c3ccc(C(C)(C)C)cc3)CC2)cc1` (centres unmarked) [CBK286333]: 127.65%; for `CCOC(=O)c1[nH]c2ccccc2c1NC(=O)c1cc(F)cc(Cl)c1` [CBK160143]: 103.538%.
Regarding `Cc1cc2nc(NS(C)(=O)=O)n(S(C)(=O)=O)c2cc1C` [CBK023112], the “% of control remaining” value is 91.1251%.
With `COc1ccc(C(=O)C2CCN(Cc3cccc4cccnc34)CC2)cc1` [CBK295192], the “% of control remaining” value is given as 116.359%.
Take `CC(C)c1nc(CC(=O)NCCC(=O)N2CCCc3ccccc32)cs1` [CBK305437]: the “% of control remaining” value came to 77.8384%.
In the case of `C(=N\Nc1nc2ccccc2[nH]1)/c1cccnc1` [CBK026357], the “% of control remaining” value turned out to be 89.3129%.
Take `CN1CN=C2SC3(COC(c4cccc(Br)c4)OC3)C(=O)N2C1` (centres unmarked) [CBK263700]: the “% of control remaining” value is given as 133.226%.
As for `Cc1ccc(OCCSc2nnc(N)[nH]2)cc1` [CBK269334], the “% of control remaining” value was 166.128%.
As for `CCCn1cnnc1C(C)NS(=O)(=O)c1cccc(C(=O)N2CCC2)c1` (centres unmarked) [CBK306569], the “% of control remaining” value amounted to 134.368%.
Consider `c1cnc(N2CCN(Cc3ccc4c(c3)OCO4)CC2)c(OCCN2CCOCC2)n1` [CBK082894T], for which the “% of control remaining” value was 106.02%.
As to `CC(C)(C)C1=CC2=NC3(CCCCCCC3)[C@@H]3C[C@@H](O)[C@@H](O)[C@@H]3N2O1` [CBK303256], the “% of control remaining” value amounted to 102.799%.
Consider `Cc1ccc(OCCOCCN(C)C)c(Cl)c1` [CBK265493G], for which the “% of control remaining” value is 111.726%.
In the case of `CC(C)(C)c1csc(NC(=O)C2CC(=O)N(c3cccc(C(F)(F)F)c3)C2)n1` (centres unmarked) [CBK175545], the “% of control remaining” value amounted to 94.7677%.
The figure for `Cc1ccccc1CN1CC[C@H]2[C@@H](C1)[C@H](c1ccsc1)CN2C(=O)c1ccc(F)cc1` [CBK285638] is 132.119%; for `Cc1ccc(C(=O)N2CCC[C@@H]3NC(=O)c4ccccc4OCC/C=C/C[C@@H]32)c(O)n1` [CBK292080] it is 125.87%.
Consider `COCCN1CCC2(C/C=C/C[C@H]3COCC[C@H]3NC(=O)CNC2=O)CC1` [CBK292145], for which the “% of control remaining” value came to 87.3023%.
Consider `CS(=O)(=O)N(CC(=O)NCc1ccccn1)c1ccc(C23CC4CC(CC(C4)C2)C3)cc1` [CBK268448], for which the “% of control remaining” value is given as 114.21%.
The same measure for `CCNC(=O)C1(NC(=O)c2cn3ccccc3n2)CCCCC1` [CBK305240]: 90.4558%; for `CN1C(=O)c2ccccc2C(=O)[C@@]2(C)CN(Cc3ccccc3)C[C@@H]12` [CBK284692]: 123.688%.
As for `COc1ccc(OCCCN2C(=O)C3(CC(=O)N(Cc4ccccc4)C3=O)c3cc(OC)ccc32)cc1` (centres unmarked) [CBK075523], the “% of control remaining” value is given as 110.687%.
In the case of `CCOc1cc(/C=N/NC(=O)CSc2nc(C)cc(C)n2)ccc1O` [CBK262405], the “% of control remaining” value is 116.815%.
Consider `CC(C)NC(=O)N1CC[C@H](c2nc3ncccc3[nH]2)C1` [CBK289369], for which the “% of control remaining” value is listed as 129.151%.
Consider `CC(C)(C)OC(=O)N1CCC(N(CCCO)Cc2ccccn2)CC1` [CBK304246], for which the “% of control remaining” value turned out to be 102.338%.
With `CN(CC(N)=O)C(=O)CCn1c(=O)oc2cc(Cl)ccc21` [CBK305757], the “% of control remaining” value came out at 165.881%.
Take `Oc1cccc2c1OCO2` [CBK000070]: the “% of control remaining” value was 120.455%.
`O=C(NC[C@H]1O[C@@H](CC(=O)N2CCCC2)[C@H](O)[C@@H]1O)c1ccc(F)c(Cl)c1` [CBK288913]: the “% of control remaining” value was determined as 113.669%.
For `O=C(CCc1cccnc1)Nc1ccc(Oc2ccccc2)cc1` [CBK295168], the “% of control remaining” value is 134.315%.
On to `CCNC(=O)CN1CCN(c2ccc(C#N)cc2C(F)(F)F)CC1` [CBK306112], for which the “% of control remaining” value turned out to be 129.69%.
On to `COc1cccc(/C=N\NC(=O)CN2CCN(Cc3ccccc3)CC2)c1O` [CBK263106], for which the “% of control remaining” value was found to be 94.4122%.
As to `NNc1nccc(Nc2ccccc2C(=O)O)n1` [CBK263145], the “% of control remaining” value is 85.7861%.
The figure for `COC(=O)c1cccc2c1CCCN2Cc1nnc(C2CC2)o1` [CBK304868] is 118.722%.
Take `O=c1[nH]c(=O)c2cc(S(=O)(=O)Nc3cccc(CCc4ccncc4)c3)ccc2[nH]1` [CBK286397]: the “% of control remaining” value turned out to be 126.313%.
Take `Cc1nnc(SCC(=O)NC2CC3CCC2C3)[nH]1` (centres unmarked) [CBK270239]: the “% of control remaining” value is reported as 140.392%.
As for `O=C1CCN(Cc2ccccc2)CCN1C(=O)C1CCCC1` [CBK284829], the “% of control remaining” value is given as 141.064%.
The figure for `O=[N+]([O-])c1ccc(N2CCN(S(=O)(=O)N3CCCC3)CC2)c(Cl)c1` [CBK264772] is 118.604%; for `c1ccc(COc2ccc3[nH]c4c(c3c2)CCNC42CCN(Cc3ccccc3-c3ccccc3)C2)cc1` (centres unmarked) [CBK039909] it is 100.604%.
With `O=C(O)c1ccc(Sc2ccc(S(=O)(=O)c3ccc(C(=O)O)c(C(=O)O)c3)cc2)cc1` [CBK261253], the “% of control remaining” value is reported as 101.23%.
The figure for `CCc1nn(CC(=O)N(CC)CC)c(=O)c2cc3ccsc3n12` [CBK284132] is 92.9667%; for `CCC(CO)Nc1nccnc1-c1ccoc1` (centres unmarked) [CBK088756] it is 189.36%.
As for `CCOC(=O)c1sc(NC(=O)C2CCCO2)c(C(N)=O)c1C` (centres unmarked) [CBK058830], the “% of control remaining” value was found to be 159.745%.
Turning to `CCN(CCC(C)c1ccccc1)CCN(C)C` (centres unmarked) [CBK261914], the “% of control remaining” value was 100%.
For the compound `Fc1ccc(-c2nccnc2NCc2ccncc2)cc1Cl` [CBK037422], the “% of control remaining” value was found to be 123.378%.
On to `Cc1cc(COc2nc3ccccc3nc2NCCC2=CCCCC2)no1` [CBK173982], for which the “% of control remaining” value is given as 118.919%.
As for `Cc1ccc(Br)cc1S(=O)(=O)N1CCN(C(c2ccccc2)c2ccccc2)CC1` [CBK263433], the “% of control remaining” value is 125.633%.
`Sc1nnc(COc2ccccc2)n1/N=C/c1ccccn1` [CBK265279]: the “% of control remaining” value is listed as 105.352%.
As to `COC[C@@H]1OC[C@@]2(C)C3CC[C@@H](O)[C@@H](CC(=O)NCc4ccccc4)[C@]3(C)CC[C@H]2O1` (some centres unmarked) [CBK289574], the “% of control remaining” value is given as 133.509%.
With `CC(C)(C)C1=CC2=NC3(CCC3)C3C[C@](O)(COCc4ccccc4)[C@@H](O)[C@@H]3N2O1` (some centres unmarked) [CBK303259], the “% of control remaining” value turned out to be 129.929%.
In the case of `Cc1cc(C)n(CCCNC(=O)N2CCC(c3nccs3)CC2)n1` [CBK304088], the “% of control remaining” value came out at 152.867%.
In the case of `COc1ccc(-c2nc(Nc3cccc(C(F)(F)F)c3)sc2CC(=O)O)cc1OC` [CBK131693], the “% of control remaining” value was found to be 93.2396%.
For `O=c1[nH]c(=O)c2cc(S(=O)(=O)Nc3ccc(Cn4ccnc4)cc3)ccc2[nH]1` [CBK286383], the “% of control remaining” value stood at 108.598%.
For `COc1ncc(-c2nccnc2NCc2cccnc2)c(OC)n1` [CBK036817], the “% of control remaining” value is given as 139.64%.
Turning to `O=C(CSCc1ccc(Cl)c(Cl)c1)Nc1cccnc1` [CBK268542], the “% of control remaining” value is on record as 105.326%.
Consider `Cn1ncc2c(NCCCN3CCCC(CO)C3)nc(C(C)(C)C)nc21` (centres unmarked) [CBK307082], for which the “% of control remaining” value is listed as 152.705%.
With `NS(=O)(=O)c1ccc(NC(=O)CCC2COc3ccccc3O2)cc1` (centres unmarked) [CBK267696], the “% of control remaining” value worked out at 104.961%.
Regarding `CCCN1CCC(CNC(=O)c2cc(C3CC3)nn2C)CC1` [CBK282536], the “% of control remaining” value is listed as 123.567%.
With `COc1ccc([C@@]23CCC(NC(=S)NCc4ccccc4)C[C@@H]2N(Cc2ccccc2)CC3)cc1` (some centres unmarked) [CBK028140], the “% of control remaining” value turned out to be 173.856%.
With `Cc1cccc(-c2ccc(CC3(C(N)=O)CCN(C(=O)Cc4ccccc4)CC3)cc2)c1` [CBK285780], the “% of control remaining” value amounted to 118.45%.
Regarding `O=C(c1ccccc1F)N1C2CCC1CC(O)(c1cccnc1F)C2` (centres unmarked) [CBK284420], the “% of control remaining” value came out at 111.312%.
`C=C(C)CNC(=O)c1ccc(C)nc1N1CCOCC1` [CBK076389]: the “% of control remaining” value was determined as 100.117%.
In the case of `COCC(C)NS(=O)(=O)c1cc(Cl)ccc1OC` (centres unmarked) [CBK270203], the “% of control remaining” value was 129.532%.
The same measure for `CCN(CC)c1c(C)nc2ccc(C(=O)NCc3ccc(N(C)C)cc3)cn12` [CBK145961]: 182.021%; for `COc1ccc(C(=O)C2CCCCC23NCCN3)cc1` (centres unmarked) [CBK023140]: 112.15%.
For the compound `COc1ccc(-c2ccc(SCC(=O)Nc3cc(C)on3)nn2)cc1` [CBK287634], the “% of control remaining” value was determined as 122.471%.
With `COc1ccnc(N2CCN(C(=O)c3cc(C(C)=O)cn3C)CC2)n1` [CBK306272], the “% of control remaining” value came out at 140.605%.
For the compound `CC(C)C[C@H]([C@@H]1C[C@@H](C(C)C)C(=O)O1)N1C(=O)c2ccccc2C1=O` [CBK011526], the “% of control remaining” value came out at 104.018%.
Turning to `CCOC(=O)CNC1CCCCC1` [CBK023276C], the “% of control remaining” value worked out at 120.418%.
On to `CCc1nc2ccc(C(=O)N(C)CCN(C)C)cn2c1N(CC)Cc1cccc(Br)c1` [CBK146962], for which the “% of control remaining” value was determined as 106.715%.
For the compound `Cc1c(C)n(O)[n+]([O-])c1-c1ccccc1` [CBK264510N], the “% of control remaining” value worked out at 81.5813%.
In the case of `CC(C)(O)C#Cc1ccc(C(=O)N2CCC(C(N)=O)(N3CCCCC3)CC2)cc1` [CBK264065], the “% of control remaining” value turned out to be 124.129%.
Regarding `COC(=O)Cn1c(CN2CCN(c3ccccc3F)CC2)nc2c1c(=O)n(C)c(=O)n2C` [CBK269444], the “% of control remaining” value was 135.308%.
The figure for `O=C(O)C[C@H](CNC(=O)COc1ccc2ccc(=O)oc2c1)c1ccc(Cl)cc1` [CBK286702] is 103.116%; for `Oc1ccc(/C=N/n2c(S)nnc2C(F)(F)F)cc1` [CBK265206] it is 101.024%.
As for `Cc1cccnc1NC(=O)c1ccc(N2CCN(C)CC2)c([N+](=O)[O-])c1` [CBK269366], the “% of control remaining” value is 149.055%.
The figure for `CC(C)C(=O)Nc1c(-c2ccsc2)cnc2ncccc12` [CBK083714] is 124.97%; for `CC1=CCCN(C(=O)C23CCOCC2CN(c2ncc(F)cn2)C3)C1` (centres unmarked) [CBK304263] it is 103.562%.
